Results are given in words; binding and its absence hold for the method and conditions named. Some results given as binding are weak or reduced against the parent protein; the word gives no strength.
Legend:
[1] = molecular target: GFP-labeled αB-crystallin (αB-c-TEV site-GFP-His tag) (UniProt P02511); test: microfluidic diffusional sizing; GFP-αB-c alone, 21 °C; average hydrodynamic radius of the oligomer distribution; both purified
[2] = molecular target: GFP-labeled αB-crystallin (αB-c-TEV site-GFP-His tag) (UniProt P02511); test: native MS; samples at 20 μM electrosprayed, modified quadrupole-TOF; spectra fit with UniDec, oligomer mass list of 5 to 50 subunits; both purified

Chains of the proteins cited; added tags and fusions are not shown.
UniProt P02511: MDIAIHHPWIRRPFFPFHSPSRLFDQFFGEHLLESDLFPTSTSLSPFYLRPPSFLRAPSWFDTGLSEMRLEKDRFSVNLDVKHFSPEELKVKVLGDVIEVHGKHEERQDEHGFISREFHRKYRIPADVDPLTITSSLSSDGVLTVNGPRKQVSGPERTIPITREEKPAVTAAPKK

- binding [1]: binds
- binding [2]: binds
Substance: GFP-labeled αB-crystallin (αB-c-TEV site-GFP-His tag) (from UniProt P02511 1-175)
